In the supplement of paper PMC10849652:
The list shows a part of the results.

Amino acid sequences for entries named in this document (tags omitted). A change or cut given only in a name is not applied to a line headed by its entry.
UniProt Q8WUY8: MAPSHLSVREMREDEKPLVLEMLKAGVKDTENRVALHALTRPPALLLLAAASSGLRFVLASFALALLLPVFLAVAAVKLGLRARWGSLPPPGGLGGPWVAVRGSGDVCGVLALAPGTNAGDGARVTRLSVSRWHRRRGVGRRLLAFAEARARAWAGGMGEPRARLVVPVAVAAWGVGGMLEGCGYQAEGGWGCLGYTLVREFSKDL
UniProt G3V1V0: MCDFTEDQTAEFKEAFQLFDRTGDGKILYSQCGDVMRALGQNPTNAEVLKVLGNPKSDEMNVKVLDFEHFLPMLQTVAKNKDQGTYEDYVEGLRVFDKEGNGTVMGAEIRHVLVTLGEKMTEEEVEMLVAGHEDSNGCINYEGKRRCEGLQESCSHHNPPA
UniProt P08590, whole entry, looked up: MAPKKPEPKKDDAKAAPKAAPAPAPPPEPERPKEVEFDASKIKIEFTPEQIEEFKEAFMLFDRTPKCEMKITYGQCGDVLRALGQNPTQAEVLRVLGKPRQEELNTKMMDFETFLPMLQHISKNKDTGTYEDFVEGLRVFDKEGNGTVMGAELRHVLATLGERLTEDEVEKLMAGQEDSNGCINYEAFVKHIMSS
UniProt Q15746, whole entry, looked up: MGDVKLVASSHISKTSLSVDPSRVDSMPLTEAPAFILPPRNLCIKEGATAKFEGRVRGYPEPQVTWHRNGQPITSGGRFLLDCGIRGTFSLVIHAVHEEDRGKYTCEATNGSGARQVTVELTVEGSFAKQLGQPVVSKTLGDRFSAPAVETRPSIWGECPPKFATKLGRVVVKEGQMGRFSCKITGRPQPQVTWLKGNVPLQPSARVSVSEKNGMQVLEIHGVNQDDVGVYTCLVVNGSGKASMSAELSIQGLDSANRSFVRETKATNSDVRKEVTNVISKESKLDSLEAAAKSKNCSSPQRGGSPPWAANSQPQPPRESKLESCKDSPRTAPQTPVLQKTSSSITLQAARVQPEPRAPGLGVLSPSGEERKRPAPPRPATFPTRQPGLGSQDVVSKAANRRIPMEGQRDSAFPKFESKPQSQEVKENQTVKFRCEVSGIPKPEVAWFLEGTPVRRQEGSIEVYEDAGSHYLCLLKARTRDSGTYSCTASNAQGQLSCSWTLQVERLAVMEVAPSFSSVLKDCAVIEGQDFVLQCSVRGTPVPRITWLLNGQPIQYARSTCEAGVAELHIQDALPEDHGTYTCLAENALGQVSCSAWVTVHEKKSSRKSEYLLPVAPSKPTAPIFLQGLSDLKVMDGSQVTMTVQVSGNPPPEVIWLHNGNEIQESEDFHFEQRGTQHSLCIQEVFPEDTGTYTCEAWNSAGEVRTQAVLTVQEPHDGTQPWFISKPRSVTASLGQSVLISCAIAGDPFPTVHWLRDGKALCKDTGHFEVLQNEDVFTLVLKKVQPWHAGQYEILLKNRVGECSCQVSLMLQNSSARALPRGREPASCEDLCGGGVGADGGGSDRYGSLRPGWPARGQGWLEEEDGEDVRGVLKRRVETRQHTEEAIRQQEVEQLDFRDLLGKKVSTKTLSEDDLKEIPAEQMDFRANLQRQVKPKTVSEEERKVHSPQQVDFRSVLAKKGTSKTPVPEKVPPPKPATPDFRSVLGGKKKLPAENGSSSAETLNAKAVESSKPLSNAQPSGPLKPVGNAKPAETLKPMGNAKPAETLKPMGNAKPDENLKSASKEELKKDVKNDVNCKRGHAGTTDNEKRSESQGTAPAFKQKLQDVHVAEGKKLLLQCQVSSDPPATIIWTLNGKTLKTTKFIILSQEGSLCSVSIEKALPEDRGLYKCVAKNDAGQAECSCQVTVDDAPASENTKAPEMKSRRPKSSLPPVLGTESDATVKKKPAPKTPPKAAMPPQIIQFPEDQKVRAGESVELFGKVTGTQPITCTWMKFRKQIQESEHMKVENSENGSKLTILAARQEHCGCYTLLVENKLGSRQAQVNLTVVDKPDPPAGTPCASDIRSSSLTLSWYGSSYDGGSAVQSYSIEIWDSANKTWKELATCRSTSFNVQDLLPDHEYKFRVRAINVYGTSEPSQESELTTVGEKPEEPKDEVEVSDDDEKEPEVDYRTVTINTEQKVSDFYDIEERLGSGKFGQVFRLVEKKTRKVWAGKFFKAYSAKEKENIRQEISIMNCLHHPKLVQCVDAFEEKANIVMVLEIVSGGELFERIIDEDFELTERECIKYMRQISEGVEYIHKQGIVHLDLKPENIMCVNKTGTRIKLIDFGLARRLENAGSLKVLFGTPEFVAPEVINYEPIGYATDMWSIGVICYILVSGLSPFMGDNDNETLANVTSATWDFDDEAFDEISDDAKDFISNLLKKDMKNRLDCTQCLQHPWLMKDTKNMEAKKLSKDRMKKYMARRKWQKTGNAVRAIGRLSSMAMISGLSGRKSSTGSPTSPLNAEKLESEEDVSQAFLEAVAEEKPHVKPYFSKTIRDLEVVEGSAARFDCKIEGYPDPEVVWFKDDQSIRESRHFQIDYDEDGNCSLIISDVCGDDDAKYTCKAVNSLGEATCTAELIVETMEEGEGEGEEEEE
UniProt Q03426, whole entry, looked up: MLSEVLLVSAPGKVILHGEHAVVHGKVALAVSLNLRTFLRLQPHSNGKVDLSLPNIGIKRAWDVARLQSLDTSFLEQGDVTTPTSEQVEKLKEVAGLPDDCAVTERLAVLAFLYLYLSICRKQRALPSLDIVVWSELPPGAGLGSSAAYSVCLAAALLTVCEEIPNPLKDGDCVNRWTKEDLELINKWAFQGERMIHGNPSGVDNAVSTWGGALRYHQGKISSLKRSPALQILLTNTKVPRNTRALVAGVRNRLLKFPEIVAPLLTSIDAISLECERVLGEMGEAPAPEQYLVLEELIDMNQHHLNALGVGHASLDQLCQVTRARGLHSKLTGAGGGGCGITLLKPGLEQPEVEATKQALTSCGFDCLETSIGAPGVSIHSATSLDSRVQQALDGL
UniProt Q96BF6: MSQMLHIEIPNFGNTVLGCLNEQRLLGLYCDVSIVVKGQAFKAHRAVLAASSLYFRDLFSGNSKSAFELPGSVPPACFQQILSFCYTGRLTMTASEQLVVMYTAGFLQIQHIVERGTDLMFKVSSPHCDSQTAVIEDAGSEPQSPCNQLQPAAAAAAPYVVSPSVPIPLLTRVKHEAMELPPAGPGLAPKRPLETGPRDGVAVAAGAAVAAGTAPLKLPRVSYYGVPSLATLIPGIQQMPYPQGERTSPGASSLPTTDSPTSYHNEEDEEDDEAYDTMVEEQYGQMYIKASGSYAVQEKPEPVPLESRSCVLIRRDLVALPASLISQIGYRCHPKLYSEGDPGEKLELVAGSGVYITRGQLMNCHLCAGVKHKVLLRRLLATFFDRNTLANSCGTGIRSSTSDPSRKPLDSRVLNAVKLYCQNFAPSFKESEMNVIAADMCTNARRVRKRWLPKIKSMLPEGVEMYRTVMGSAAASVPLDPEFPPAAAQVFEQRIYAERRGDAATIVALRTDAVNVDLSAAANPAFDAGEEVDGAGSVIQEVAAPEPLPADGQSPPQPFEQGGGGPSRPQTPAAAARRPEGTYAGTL
UniProt Q15080: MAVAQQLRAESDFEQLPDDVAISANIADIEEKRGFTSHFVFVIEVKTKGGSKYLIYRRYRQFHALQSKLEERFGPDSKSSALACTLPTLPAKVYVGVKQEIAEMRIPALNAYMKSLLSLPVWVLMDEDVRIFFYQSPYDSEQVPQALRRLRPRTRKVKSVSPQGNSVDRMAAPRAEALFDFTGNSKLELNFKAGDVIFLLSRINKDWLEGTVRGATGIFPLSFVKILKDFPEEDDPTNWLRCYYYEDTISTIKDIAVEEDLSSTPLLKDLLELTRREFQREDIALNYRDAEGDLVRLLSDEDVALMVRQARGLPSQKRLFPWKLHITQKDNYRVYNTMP
UniProt Q8NCW5: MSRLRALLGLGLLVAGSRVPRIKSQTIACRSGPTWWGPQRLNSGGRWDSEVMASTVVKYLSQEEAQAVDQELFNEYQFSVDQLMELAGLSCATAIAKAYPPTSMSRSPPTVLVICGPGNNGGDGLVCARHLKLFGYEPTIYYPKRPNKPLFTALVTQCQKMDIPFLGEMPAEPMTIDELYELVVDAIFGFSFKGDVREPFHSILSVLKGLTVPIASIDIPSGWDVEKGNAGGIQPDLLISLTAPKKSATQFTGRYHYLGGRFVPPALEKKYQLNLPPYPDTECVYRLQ
UniProt P11055, whole entry, looked up: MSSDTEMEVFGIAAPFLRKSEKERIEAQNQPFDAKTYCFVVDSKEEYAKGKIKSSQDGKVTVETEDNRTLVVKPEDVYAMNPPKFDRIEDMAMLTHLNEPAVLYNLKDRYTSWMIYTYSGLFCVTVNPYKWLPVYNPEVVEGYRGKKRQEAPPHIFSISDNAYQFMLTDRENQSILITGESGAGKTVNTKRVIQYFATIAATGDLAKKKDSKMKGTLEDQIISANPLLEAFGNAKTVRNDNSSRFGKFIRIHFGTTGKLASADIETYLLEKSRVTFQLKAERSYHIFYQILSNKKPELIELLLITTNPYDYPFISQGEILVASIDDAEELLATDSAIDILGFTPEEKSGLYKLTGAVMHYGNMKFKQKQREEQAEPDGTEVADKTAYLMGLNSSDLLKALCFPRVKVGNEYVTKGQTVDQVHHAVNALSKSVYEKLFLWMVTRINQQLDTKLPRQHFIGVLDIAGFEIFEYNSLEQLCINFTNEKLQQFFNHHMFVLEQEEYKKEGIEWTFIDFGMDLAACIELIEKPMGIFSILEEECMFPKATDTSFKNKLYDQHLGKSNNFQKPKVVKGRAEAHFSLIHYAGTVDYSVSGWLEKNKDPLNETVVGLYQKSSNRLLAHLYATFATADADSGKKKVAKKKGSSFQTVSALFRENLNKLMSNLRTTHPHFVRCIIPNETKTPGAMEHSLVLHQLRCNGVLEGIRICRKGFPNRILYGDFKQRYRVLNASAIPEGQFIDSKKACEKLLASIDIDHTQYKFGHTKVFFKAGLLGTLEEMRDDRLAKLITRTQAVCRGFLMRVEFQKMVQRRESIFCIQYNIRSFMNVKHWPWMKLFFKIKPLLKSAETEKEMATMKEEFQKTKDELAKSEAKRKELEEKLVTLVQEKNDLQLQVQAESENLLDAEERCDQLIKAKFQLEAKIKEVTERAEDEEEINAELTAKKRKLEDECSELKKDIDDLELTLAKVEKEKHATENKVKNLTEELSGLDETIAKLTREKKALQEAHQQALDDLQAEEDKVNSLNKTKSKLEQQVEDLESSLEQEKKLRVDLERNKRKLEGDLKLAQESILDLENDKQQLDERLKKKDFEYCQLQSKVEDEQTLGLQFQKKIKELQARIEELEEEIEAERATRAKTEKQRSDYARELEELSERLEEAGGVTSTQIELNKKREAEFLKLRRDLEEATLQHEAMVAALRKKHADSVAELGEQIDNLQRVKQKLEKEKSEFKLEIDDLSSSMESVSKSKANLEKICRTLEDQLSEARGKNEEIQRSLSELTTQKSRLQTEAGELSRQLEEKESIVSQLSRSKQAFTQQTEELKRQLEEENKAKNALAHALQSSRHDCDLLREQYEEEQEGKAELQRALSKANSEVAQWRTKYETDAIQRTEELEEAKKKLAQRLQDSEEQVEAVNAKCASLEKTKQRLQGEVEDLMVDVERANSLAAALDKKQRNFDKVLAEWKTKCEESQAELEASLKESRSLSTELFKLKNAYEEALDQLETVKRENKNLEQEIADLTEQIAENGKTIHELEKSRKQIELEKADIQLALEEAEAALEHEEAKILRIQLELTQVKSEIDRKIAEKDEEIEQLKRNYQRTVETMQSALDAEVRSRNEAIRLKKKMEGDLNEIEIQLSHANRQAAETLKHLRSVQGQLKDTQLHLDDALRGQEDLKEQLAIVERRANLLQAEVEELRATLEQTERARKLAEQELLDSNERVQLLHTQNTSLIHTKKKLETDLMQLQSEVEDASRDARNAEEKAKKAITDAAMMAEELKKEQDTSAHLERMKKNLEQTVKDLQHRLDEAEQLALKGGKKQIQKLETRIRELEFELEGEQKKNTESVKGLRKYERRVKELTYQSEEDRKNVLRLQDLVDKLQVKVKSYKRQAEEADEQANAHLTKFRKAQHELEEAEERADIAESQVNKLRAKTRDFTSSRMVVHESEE
UniProt P60660, whole entry, looked up: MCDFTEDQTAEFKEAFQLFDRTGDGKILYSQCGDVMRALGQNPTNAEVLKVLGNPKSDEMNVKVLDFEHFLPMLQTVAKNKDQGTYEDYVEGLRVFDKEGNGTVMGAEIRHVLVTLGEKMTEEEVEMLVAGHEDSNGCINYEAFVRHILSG

Legend:
Assay in all cases: log2 fold change, soluble protein after heating vs DMSO (PISA); higher = thermal stabilisation; K562 lysate, 10 uM; active = over 0.2 and 3.5 SD of the protein, either way, in both replicates (recomputed)
[1] = compound: CC1=C2C(=CC=C1)N=C(N(C2=O)C3=CC=CC=C3C)CN4C=NC5=C(N=CN=C54)N
In short: (§1)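 K562 pellets were dounce-homogenised in PBS pH 7.4 containing 1 mM MgCl2, and the crude extract, at 1 mg/mL protein, was exposed to 10 μM compound for 30 min. Aliquots were heated for 3 min across 48°C-58°C, pooled, brought to 0.5% NP-40 at 4°C and spun at 21,000xg for 90 min, with the supernatant taken as soluble protein. TMTpro 16plex LC-MS/MS with equalised channel sums quantified that protein. Values are log-two fold changes in thermal stability relative to solvent controls, taken from duplicates.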

[2] = compound: Cc1sc2c(c1C)C(c1ccc(Cl)cc1)=N[C@@H](CC(=O)OC(C)(C)C)c1nnc(C)n1-2
In short: as §1

[3] = compound: c1ccc([C@@H]2C[C@H]2NC2CCNCC2)cc1
In short: as §1

[4] = compound: C1=CC=C(C=C1)[C@H](COC2=CC3=C(C=C2)NC(=O)N3)NC(=O)C4=CC=CN(C4=O)CC5=CC(=C(C=C5)F)F
In short: as §1

[5] = compound: CC1=C(SC2=C1C(=N[C@H](C3=NN=C(N32)C)CC(=O)N)C4=CC=C(C=C4)Cl)C
In short: as §1

Measured: log2 fold change

NAT14 (UniProt Q8WUY8)
inactive: [1] -0.025 | [2] -0.061 | [3] 0.113

MYL6 (UniProt G3V1V0)
inactive: [1] -0.066 | [2] -0.214 | [3] -0.231

MYL3 (UniProt P08590)
inactive: [4] 0.085 | [5] -0.022 | [1] -0.035 | [3] 0.011

MYO1G (UniProt B0I1T2)
inactive: [4] -0.159 | [5] 0.003 | [2] 0.054 | [3] 0.332

MYLK (UniProt Q15746)
inactive: [4] -0.038 | [5] -0.161 | [1] -0.008 | [3] 0.123

MVK (UniProt Q03426)
inactive: [4] 0.009 | [5] -0.001 | [1] 0.038 | [2] 0.004 | [3] -0.007

Pulled one by one from the entries so far (two):
MVK (UniProt Q03426)
inactive: [4] 0.009 | [5] -0.001 | [1] 0.038 | [2] 0.004 | [3] -0.007

MYL6 (UniProt G3V1V0)
inactive: [1] -0.066 | [2] -0.214 | [3] -0.231

Remaining list, next part.

NACC2 (UniProt Q96BF6)
inactive: [1] -0.054 | [2] -0.056 | [3] -0.083

NCF4 (UniProt Q15080)
inactive: [4] 0.055 | [5] -0.028 | [3] -0.001

NAXE (UniProt Q8NCW5)
inactive: [4] -0.042 | [5] -0.07 | [1] 0.026 | [2] -0.008 | [3] -0.005

MYH3 (UniProt P11055)
inactive: [1] -0.068 | [2] 0.096 | [3] 0.031

NCOA7 isoform 2 (UniProt Q8NI08)
inactive: [2] -0.102

MYL6 isoform 2 (UniProt P60660)
inactive: [1] 0.279 | [2] 0.031 | [3] -0.162
